Patent US20150218246A1
No constants are given. Whether binding was seen depends on the method and setting. For some assays here: In cells and extracts the contact can be indirect. Some binding calls cover weakened binding; strength is not graded here. Where a sequence is shown, tags or fusion partners need not be part of it. Values belong to the binder of their own block, whether it stands above or below them.

Amino acid sequences for entries named in this document (tags omitted). Residues count along the entry.
UniProt O00206, residues 24-839: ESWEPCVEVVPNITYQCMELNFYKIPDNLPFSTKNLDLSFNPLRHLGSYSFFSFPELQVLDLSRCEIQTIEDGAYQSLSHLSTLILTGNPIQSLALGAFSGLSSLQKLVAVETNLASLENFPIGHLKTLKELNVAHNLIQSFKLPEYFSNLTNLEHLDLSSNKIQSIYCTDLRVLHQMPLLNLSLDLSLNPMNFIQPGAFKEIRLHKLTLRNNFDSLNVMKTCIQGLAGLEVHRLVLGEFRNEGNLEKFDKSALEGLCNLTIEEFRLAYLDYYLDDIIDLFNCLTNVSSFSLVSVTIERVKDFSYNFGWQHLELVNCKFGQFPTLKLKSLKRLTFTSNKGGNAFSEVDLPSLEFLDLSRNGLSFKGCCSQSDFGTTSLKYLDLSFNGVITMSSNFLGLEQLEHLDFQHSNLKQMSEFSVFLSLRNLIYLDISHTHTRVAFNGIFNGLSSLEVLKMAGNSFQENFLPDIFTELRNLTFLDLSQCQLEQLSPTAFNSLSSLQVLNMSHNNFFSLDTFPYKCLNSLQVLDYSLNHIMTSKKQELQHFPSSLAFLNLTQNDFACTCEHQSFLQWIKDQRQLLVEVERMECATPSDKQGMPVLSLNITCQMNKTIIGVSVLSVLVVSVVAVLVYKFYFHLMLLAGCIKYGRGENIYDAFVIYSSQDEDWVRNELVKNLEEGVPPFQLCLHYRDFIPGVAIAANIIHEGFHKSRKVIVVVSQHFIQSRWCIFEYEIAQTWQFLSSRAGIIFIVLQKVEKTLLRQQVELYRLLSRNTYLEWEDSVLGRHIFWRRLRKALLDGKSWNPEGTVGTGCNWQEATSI

Assays:
Flag-tagged TLR4 [1] = molecular target: Flag-tagged TLR4 (UniProt O00206); test: co-immunoprecipitation from HEK293 lysates: anti-Flag pull-down, anti-Myc immunoblot
[2] = molecular target: TLR4-mCitrine stably expressed on HEK293T cells (UniProt O00206); test: flow cytometry and confocal imaging: anti-myc surface staining of HEK293T TLR4-mCitrine cells transfected with the myc-tagged protein
[3] = molecular target: T1, Flag-tagged human wild-type MD-2 (human), Q9Y6Y9; test: co-immunoprecipitation from HEK293 lysates: anti-Flag pull-down of Flag-MD-2, anti-Myc immunoblot; settings: remark: other sources report otherwise
T1 chain: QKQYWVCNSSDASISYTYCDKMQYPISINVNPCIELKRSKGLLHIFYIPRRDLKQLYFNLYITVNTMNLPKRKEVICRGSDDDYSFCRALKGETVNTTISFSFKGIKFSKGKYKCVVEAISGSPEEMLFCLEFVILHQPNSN

[4] = molecular target: T2, Flag-tagged human wild-type MD-2 (human) (UniProt Q9Y6Y9); test: as above
T2 sequence (looked up): T1 chain

Flag-tagged TLR4 [5] = molecular target: Flag-tagged TLR4 (UniProt O00206); test: co-immunoprecipitation from HEK293 lysates: anti-Flag pull-down, anti-Myc immunoblot (FIG. 4B)
[6] = molecular target: T2, Flag-tagged human wild-type MD-2 (human); test: co-immunoprecipitation from HEK293 lysates: anti-Flag pull-down of Flag-MD-2, anti-Myc immunoblot (FIG. 6A)

binding (Flag-tagged TLR4 [1]): binds | binding [2]: binds
B1: Myc-tagged wild-type human MD-2 (protein, UniProt Q9Y6Y9 19-160, looked up, not shown: small tags and cut ends)
chain: T1 chain

binding [3]: binds
B2: Myc-tagged wild-type human MD-2, Q9Y6Y9 19-160 (protein, UniProt Q9Y6Y9 19-160, looked up, not shown: small tags and cut ends)
chain: T1 chain

binding [4]: binds | binding (Flag-tagged TLR4 [1]): binds | binding (Flag-tagged TLR4 [5]): binds | binding [6]: binds | binding [2]: binds
B3: Myc-tagged MD-2s (alternatively spliced short isoform of human MD-2) (protein, not shown: small tags and cut ends)
chain: QKQYWVCNSSDASISYTYCGRDLKQLYFNLYITVNTMNLPKRKEVICRGSDDDYSFCRALKGETVNTTISFSFKGIKFSKGKYKCVVEAISGSPEEMLFCLEFVILHQPNSN
modifications: N-linked glycosylated (slower migrating forms removed by PNGase F)
